According to publication PMC8987157, “Regioselective One-Pot Synthesis of Hydroxy-(S)-Equols Using Isoflavonoid Reductases and Monooxygenases and Evaluation of the Hydroxyequol Derivatives as Selective Estrogen Receptor Modulators and Antioxidants” (Frontiers in Bioengineering and Biotechnology, 2022):
These are yes or no findings as the source states them, for the method shown. Some binding calls cover weakened binding; strength is not graded here.

The chains behind the UniProt entries cited, without tags or fusion partners. Where a name states a change or a piece, a line headed by the entry shows the natural chain unless it says otherwise. Residues count along the entry.
UniProt Q92731, residues 264-510: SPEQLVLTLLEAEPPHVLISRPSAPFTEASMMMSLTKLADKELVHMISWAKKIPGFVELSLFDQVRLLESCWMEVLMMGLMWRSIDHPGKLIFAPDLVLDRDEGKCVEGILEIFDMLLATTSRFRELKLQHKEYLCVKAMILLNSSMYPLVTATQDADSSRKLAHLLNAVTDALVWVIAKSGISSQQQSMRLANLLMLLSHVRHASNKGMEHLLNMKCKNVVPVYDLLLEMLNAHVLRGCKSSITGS
UniProt Q15788, residues 613-773: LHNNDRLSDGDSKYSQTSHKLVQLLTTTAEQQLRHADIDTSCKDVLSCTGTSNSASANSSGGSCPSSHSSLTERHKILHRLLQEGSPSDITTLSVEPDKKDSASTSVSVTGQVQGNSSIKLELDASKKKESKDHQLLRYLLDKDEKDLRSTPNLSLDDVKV

Columns and labels:
[1] = biological target: LexA DBD-ERβ LBD (264–510) (UniProt Q92731); assay: condition: only with 5HE (10^–8∼10^–3 M) as the added ligand; two-hybrid; the same two-hybrid system with 5-hydroxy-(S)-equol (5HE, 10^–8∼10^–3 M) as the added compound
[2] = biological target: LexA DBD-ERβ LBD (264–510) (UniProt Q92731); assay: two-hybrid; LexA DBD-ER LBD bait and VP16 AD-tSRC1 prey in S. cerevisiae L40; β-galactosidase (ONPG, Miller units) after overnight (~20 h) culture at 30 °C with 17β-estradiol, genistein, (S)-equol, 3′HE or 6HE; normalised to 10 nM E2

binding [1]: no binding
binding [2]: binds
Substance: VP16 activator domain (AD)-(Gly4Ser)2 linker-truncated steroid receptor coactivator 1 (tSRC1) (613–773) (from UniProt Q15788 613-773) (domain or fragment)
